The list shows a part of the results. Single values are uncertain, as repeats are few or missing.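 Cells were imaged in 1,536-well plates, and nuclei stained with an antibody against cleaved PARP were counted against all DNA-stained nuclei to give the apoptosis fraction. Screening doses were chosen to leave most cells alive, and resting and induced cleaved-PARP levels differ strongly between cell lines.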
Experiments:
Assay in all cases: cleaved PARP positive nuclei fraction relative to DMSO control; melanoma cells; higher = more apoptosis
Conditions in all cases: library dose: low library concentration; 72 h
501Mel = system: 501Mel
A101D = system: A101D
A2058 = system: A2058
A375 = system: A375
C32 = system: C32
CBRC008 = system: CBRC008 (line from a melanoma biopsy)
CBRC014 = system: CBRC014 (line from a melanoma biopsy)
CBRC016 = system: CBRC016 (line from a melanoma biopsy)
CBRC017 = system: CBRC017 (line from a melanoma biopsy)
CBRC034 = system: CBRC034 (line from a melanoma biopsy)
COLO792 = system: COLO792
COLO800 = system: COLO800
COLO829 = system: COLO829
G361 = system: G361
IPC-298 = system: IPC-298
IST-MEL1 = system: IST-MEL1
LB2518-MEL = system: LB2518-MEL
LOXIMVI = system: LOXIMVI
MEL-HO = system: MEL-HO

| Structure (SMILES) | cleaved PARP positive nuclei fraction (501Mel) [%] | cleaved PARP positive nuclei fraction (A101D) [%] | cleaved PARP positive nuclei fraction (A2058) [%] | cleaved PARP positive nuclei fraction (A375) [%] | cleaved PARP positive nuclei fraction (C32) [%] | cleaved PARP positive nuclei fraction (CBRC008) [%] | cleaved PARP positive nuclei fraction (CBRC014) [%] | cleaved PARP positive nuclei fraction (CBRC016) [%] | cleaved PARP positive nuclei fraction (CBRC017) [%] | cleaved PARP positive nuclei fraction (CBRC034) [%] | cleaved PARP positive nuclei fraction (COLO792) [%] | cleaved PARP positive nuclei fraction (COLO800) [%] | cleaved PARP positive nuclei fraction (COLO829) [%] | cleaved PARP positive nuclei fraction (G361) [%] | cleaved PARP positive nuclei fraction (IPC-298) [%] | cleaved PARP positive nuclei fraction (IST-MEL1) [%] | cleaved PARP positive nuclei fraction (LB2518-MEL) [%] | cleaved PARP positive nuclei fraction (LOXIMVI) [%] | cleaved PARP positive nuclei fraction (MEL-HO) [%] |
| --- | --- | --- | --- | --- | --- | --- | --- | --- | --- | --- | --- | --- | --- | --- | --- | --- | --- | --- | --- |
| Cn1c(=O)n(-c2ccc(C(C)(C)C#N)cc2)c2c3cc(-c4cnc5ccccc5c4)ccc3ncc21 + Nc1cccc2c1CN(C1CCC(=O)NC1=O)C2=O [lenalidomide] (first compound 0.004 µM, partner dose 1 µM) | 138 | 53.1 | 107 | 270 | 75.2 | 203 | 88.6 | 97.3 | 95.4 | 103 | 80.2 | 79.4 | 82.8 | 114 | 183 | 146 | 109 | 159 | 189 |
| CC(C)C[C@H](NC(=O)[C@H](Cc1ccccc1)NC(=O)c1cnccn1)B(O)O [Bortezomib] + CO[C@H]1C[C@@H]2CC[C@@H](C)[C@@](O)(O2)C(=O)C(=O)N2CCCC[C@H]2C(=O)O[C@H]([C@H](C)C[C@@H]2CC[C@@H](OCCO)[C@H](OC)C2)CC(=O)[C@H](C)/C=C(\C)[C@@H](O)[C@@H](OC)C(=O)[C@H](C)C[C@H](C)/C=C/C=C/C=C/1C [everolimus] (first compound 0.001 µM, partner dose 0.02 µM) | 2240 | 535 | 133 | 555 | 163 | 988 | 240 | 558 | 401 | 423 | 147 | 177 | 220 | 2710 | 172 | 456 | 258 | 196 | 155 |
| C[C@@H](Oc1cc(-c2cnn(C3CCNCC3)c2)cnc1N)c1c(Cl)ccc(F)c1Cl [Crizotinib] + Cn1c(Nc2ccc(C(F)(F)F)cc2)nc2cc(Oc3ccnc(-c4ncc(C(F)(F)F)[nH]4)c3)ccc21 [CHIR265] (first compound 0.2 µM, partner dose 0.08 µM) | 91.1 | 93.8 | 137 | 88.7 | 91.5 | 150 | 99.1 | 76.8 | 115 | 159 | 288 | 131 | 102 | 22.3 | 107 | 65.7 | 143 | 81.4 | 95.7 |
| CCCS(=O)(=O)Nc1ccc(F)c(C(=O)c2c[nH]c3ncc(Cl)cc23)c1F + Cc1nc(Nc2ncc(C(=O)Nc3c(C)cccc3Cl)s2)cc(N2CCN(CCO)CC2)n1 [dasatanib] (first compound 0.08 µM, partner dose 0.004 µM) | 69.3 | 52 | 196 | 293 | 78.3 | 172 | 137 | 109 | 119 | 128 | 135 | 70.3 | 109 | 246 | 106 | 97.8 | 122 | 128 | 159 |
